From PubChem BioAssay AID2284348 (EPA ToxCast)
This list was built around the results that the source calls inconclusive (neither active nor inactive); the mix of calls is not that of the screen. How the source made its calls: active means hit-call score of the fitted dose curve at least 0.9, where 1 is the maximum; inconclusive means response in the unintended direction; inactive means score below 0.9. A potency beside an inconclusive call is a rough fit, not a confirmed value.

Test system: Japanese medaka Peroxisome Proliferator-activated Receptor alpha (PPARa), gene 100304458
Test: ATG_jmPPARa_EcoTox2: Attagene TRANS-FACTORIAL EcoTox-2 HepG2 Assay for Japanese medaka Peroxisome Proliferator-activated Receptor alpha (PPARa)
Method: ATG_EcoTox2 is a cell-based, multiplexed assay created by modifying the existing Attagene TRANS-FACTORIAL system to include a panel of nuclear receptors from some or all the following species: human (Homo sapiens), african clawed frog (Xenopus laevis), rainbow trout (Oncorhynchus mykiss), japanese medaka (Oryzias latipes), and zebrafish (Danio rerio). The ECOTOX2-FACTORIAL format uses HepG2, a human liver cell line, with measurements taken at 24 hours after chemical dosing in a 24-well plate. ATG_jmPPARa_EcoTox2 is one of 29 assay components calculated in the ATG_EcoTox2 assay. It is designed to make measurements of mRNA induction, a form of inducible reporter, as detected with fluorescence intensity signals by Reverse transcription polymerase chain reaction (RT-PCR) and Capillary electrophoresis technology.The assay endpoint ATG_jmPPARa_EcoTox2 was analyzed in the positive analysis fitting direction relative to DMSO as the negative control and baseline of activity. Using a type of inducible reporter, measures of mRNA for gain-of-signal activity can be used to understand the reporter gene at the transcription factor-level as they relate to the gene PPARa. Furthermore, this assay endpoint can be referred to as a […], because this assay has produced multiple assay endpoints where this one serves a reporter gene function. […]

Row | SMILES | AC50
1 | Cc1c(C)c2c(c(C)c1O)CCC(C)(COc1ccc(CC3SC(=O)NC3=O)cc1)O2 (configuration not stated) | inconclusive: 16.6 µM
2 | CC(c1cc2ccccc2s1)N(O)C(N)=O (configuration not stated) | inconclusive: 50 µM
